Measured values reported in publication PMC3979850.
These are yes or no findings as the source states them, for the method shown. Binding seen in cells or lysates may run through a third protein. Some results given as binding are weak or reduced against the parent protein; the word gives no strength.

Amino acid sequences for entries named in this document (tags omitted). Residues count along the entry.
UniProt P42262, residues 25-883: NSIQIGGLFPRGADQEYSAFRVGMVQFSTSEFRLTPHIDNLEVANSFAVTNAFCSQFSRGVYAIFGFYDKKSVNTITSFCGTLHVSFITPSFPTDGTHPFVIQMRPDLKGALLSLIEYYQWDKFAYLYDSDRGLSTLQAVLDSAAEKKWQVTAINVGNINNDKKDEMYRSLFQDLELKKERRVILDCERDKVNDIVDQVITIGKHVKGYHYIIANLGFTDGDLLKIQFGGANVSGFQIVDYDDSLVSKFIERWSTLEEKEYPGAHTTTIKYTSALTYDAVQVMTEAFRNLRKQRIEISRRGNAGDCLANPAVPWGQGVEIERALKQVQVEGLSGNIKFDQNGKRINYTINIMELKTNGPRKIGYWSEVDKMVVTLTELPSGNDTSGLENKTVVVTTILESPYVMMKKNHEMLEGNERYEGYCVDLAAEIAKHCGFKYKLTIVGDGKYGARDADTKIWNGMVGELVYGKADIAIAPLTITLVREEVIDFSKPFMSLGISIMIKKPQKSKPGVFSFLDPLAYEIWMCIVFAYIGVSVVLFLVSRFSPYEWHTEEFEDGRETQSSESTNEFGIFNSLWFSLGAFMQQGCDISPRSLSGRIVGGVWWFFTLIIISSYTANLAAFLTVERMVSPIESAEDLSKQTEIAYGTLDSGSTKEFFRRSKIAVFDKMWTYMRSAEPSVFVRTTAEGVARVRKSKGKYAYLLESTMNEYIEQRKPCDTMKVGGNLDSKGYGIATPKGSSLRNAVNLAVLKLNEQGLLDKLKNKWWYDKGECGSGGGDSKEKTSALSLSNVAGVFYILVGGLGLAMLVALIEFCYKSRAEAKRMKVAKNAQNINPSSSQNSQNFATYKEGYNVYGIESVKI
UniProt P42263, residues 29-894: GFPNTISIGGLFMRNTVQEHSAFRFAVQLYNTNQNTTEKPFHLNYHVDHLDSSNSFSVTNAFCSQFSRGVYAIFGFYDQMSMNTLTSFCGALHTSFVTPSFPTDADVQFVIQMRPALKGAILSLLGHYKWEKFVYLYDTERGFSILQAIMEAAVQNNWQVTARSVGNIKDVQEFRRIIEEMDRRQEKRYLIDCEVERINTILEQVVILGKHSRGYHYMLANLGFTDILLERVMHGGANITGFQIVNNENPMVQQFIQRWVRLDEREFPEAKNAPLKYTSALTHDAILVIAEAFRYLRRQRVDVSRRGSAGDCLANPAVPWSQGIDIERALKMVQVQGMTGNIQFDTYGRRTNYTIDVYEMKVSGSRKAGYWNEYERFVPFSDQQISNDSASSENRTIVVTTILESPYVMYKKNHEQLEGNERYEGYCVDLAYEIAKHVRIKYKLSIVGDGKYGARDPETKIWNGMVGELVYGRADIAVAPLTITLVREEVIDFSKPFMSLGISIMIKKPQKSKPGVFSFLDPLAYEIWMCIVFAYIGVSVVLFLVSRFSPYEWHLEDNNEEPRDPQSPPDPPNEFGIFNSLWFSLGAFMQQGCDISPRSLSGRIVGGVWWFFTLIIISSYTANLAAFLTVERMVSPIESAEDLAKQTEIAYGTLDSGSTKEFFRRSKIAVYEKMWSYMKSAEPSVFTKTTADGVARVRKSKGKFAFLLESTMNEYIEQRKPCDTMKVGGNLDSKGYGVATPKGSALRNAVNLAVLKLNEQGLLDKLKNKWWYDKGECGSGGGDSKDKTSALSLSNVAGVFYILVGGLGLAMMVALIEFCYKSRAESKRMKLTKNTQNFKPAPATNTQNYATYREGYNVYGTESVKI
UniProt P48058, residues 21-902: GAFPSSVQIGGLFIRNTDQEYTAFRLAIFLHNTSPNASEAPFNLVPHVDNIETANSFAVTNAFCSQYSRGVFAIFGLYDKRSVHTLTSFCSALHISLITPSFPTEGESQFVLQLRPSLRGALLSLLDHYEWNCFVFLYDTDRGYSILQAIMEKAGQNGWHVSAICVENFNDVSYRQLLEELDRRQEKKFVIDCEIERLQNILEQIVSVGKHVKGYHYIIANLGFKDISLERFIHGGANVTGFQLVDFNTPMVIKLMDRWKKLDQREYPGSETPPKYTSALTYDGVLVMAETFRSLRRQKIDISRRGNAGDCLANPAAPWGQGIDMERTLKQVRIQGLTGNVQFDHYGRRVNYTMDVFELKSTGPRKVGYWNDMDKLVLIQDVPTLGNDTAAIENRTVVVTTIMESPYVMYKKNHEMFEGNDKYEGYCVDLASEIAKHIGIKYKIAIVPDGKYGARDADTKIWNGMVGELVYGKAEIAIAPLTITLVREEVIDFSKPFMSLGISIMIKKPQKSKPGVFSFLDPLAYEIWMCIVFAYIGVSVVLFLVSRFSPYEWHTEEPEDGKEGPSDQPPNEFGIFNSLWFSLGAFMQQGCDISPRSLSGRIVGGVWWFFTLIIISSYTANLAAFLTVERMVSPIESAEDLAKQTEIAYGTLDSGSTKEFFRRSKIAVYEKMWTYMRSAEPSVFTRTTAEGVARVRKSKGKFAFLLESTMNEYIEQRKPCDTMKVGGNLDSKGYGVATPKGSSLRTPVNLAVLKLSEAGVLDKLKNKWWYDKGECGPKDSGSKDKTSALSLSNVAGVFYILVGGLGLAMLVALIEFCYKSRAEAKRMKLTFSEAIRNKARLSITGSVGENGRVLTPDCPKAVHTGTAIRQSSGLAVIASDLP

Legend:
[1] = biological target: AMPA receptor subunit GluA2 (human (endogenous in frontal cortex)) (UniProt P42262); assay: co-IP; GluA2 immunoprecipitated (anti-GluA2 on sheep anti-mouse IgG Dynabeads, 30 min RT) from 400 ug human frontal cortex lysate solubilised in 1% Triton X-100 plus 1% SDS; Western blot for GluA1, GluA3, GluA4
[2] = biological target: AMPA receptor subunit GluA2 (human (endogenous in frontal cortex)) (UniProt P42262); assay: co-IP; GluA2 immunoprecipitated (anti-GluA2 on sheep anti-mouse IgG Dynabeads, 30 min RT) from 400 ug human frontal cortex lysate solubilised in 1% Triton X-100 or in 1% Triton X-100 plus 0.5% SDS; Western blot for GluA1, GluA3, GluA4

| Substance | binding [1] | binding [2] |
| --- | --- | --- |
| AMPA receptor subunit GluA3 (from UniProt P42263 29-894) | no binding (condition: with 1% Triton X-100 plus 1% SDS) | binds |
| AMPA receptor subunit GluA4 (from UniProt P48058 21-902) | no binding (condition: with 1% Triton X-100 plus 1% SDS) | binds |
